The supplement of paper PMC10849652
Some of the results follow.

By UniProt entry, the sequences of proteins in these tests, tags left out. Where a name states a change or a piece, a line headed by the entry shows the natural chain unless it says otherwise.
UniProt Q9UI14, whole entry, looked up: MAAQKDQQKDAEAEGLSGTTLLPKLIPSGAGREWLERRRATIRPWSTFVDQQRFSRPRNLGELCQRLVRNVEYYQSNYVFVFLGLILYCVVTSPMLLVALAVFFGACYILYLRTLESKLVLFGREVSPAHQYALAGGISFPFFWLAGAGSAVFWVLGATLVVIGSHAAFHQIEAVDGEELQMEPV
UniProt Q6ZRP7: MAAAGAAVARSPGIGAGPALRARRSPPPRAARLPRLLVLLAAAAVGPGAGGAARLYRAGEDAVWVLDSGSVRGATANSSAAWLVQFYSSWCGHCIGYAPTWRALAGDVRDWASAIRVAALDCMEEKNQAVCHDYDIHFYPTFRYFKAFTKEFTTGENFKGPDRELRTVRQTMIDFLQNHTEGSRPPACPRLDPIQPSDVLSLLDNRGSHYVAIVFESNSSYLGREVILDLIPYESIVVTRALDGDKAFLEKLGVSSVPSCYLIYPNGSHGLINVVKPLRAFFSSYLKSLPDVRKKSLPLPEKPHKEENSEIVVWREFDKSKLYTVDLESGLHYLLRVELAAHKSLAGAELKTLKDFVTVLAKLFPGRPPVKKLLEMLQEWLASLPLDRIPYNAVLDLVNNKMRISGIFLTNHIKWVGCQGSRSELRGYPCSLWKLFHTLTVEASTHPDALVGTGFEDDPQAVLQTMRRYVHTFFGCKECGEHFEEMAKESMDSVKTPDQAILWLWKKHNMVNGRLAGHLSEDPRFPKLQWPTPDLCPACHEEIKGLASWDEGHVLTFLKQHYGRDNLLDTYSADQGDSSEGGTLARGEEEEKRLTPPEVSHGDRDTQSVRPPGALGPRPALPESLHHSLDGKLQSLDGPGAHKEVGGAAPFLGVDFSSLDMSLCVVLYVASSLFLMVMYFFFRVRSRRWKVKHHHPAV
UniProt O43502: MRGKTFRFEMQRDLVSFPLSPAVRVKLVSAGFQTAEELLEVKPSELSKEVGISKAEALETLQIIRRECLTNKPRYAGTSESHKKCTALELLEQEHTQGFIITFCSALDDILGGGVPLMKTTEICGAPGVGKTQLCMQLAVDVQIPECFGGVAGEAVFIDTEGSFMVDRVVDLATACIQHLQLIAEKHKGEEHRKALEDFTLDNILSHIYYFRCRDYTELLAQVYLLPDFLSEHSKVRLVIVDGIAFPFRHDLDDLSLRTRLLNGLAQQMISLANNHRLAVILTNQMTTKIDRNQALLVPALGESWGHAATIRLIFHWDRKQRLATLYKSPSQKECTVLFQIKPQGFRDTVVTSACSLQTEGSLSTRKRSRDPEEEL
UniProt Q9BRP8: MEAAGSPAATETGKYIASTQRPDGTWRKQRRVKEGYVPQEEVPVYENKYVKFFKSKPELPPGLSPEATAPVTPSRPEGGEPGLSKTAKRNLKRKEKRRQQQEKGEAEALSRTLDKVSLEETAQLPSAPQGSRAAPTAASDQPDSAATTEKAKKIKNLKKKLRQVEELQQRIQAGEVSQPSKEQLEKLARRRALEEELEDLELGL
UniProt Q9Y3T6: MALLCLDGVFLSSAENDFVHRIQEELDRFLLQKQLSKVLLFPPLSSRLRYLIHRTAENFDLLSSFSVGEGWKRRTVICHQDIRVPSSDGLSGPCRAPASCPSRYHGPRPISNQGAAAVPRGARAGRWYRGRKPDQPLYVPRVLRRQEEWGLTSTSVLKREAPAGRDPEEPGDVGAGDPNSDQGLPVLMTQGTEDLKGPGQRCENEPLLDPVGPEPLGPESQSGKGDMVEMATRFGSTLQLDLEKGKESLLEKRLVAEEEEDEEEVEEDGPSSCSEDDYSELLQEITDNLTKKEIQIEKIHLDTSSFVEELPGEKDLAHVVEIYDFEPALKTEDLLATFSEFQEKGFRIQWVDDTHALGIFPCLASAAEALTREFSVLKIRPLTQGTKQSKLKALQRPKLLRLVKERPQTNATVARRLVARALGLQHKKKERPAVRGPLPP
UniProt Q96S21: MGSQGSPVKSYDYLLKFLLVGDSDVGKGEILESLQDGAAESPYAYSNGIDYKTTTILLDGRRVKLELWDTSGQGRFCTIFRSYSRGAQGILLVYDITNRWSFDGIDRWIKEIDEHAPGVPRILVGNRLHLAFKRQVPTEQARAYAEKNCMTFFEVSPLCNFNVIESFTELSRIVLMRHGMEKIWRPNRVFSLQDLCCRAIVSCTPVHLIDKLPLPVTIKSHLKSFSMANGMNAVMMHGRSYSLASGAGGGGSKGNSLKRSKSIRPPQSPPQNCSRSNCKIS
UniProt Q15042: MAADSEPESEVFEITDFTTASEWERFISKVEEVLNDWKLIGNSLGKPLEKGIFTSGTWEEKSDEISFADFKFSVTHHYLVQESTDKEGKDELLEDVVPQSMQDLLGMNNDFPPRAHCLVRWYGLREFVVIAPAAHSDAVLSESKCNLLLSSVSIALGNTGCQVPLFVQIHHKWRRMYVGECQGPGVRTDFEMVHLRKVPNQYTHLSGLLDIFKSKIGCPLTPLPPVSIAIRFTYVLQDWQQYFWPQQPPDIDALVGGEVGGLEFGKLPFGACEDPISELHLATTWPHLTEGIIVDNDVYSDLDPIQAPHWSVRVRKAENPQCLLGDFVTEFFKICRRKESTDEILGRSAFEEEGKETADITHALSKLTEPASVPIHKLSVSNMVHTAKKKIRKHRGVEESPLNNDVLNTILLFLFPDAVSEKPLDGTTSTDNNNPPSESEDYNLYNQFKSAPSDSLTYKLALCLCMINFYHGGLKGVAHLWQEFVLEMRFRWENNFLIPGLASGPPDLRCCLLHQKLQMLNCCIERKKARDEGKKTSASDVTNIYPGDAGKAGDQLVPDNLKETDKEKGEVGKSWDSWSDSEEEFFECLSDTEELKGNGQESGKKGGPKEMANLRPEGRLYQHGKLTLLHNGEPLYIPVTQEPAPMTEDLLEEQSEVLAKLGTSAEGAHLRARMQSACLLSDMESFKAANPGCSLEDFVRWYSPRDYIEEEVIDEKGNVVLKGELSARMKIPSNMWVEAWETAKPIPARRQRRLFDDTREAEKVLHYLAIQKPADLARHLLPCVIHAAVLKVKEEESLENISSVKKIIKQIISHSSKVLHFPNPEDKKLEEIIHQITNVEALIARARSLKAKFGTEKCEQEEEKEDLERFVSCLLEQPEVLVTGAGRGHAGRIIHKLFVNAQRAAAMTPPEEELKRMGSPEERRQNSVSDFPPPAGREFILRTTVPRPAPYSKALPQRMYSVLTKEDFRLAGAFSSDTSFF
UniProt Q9H082: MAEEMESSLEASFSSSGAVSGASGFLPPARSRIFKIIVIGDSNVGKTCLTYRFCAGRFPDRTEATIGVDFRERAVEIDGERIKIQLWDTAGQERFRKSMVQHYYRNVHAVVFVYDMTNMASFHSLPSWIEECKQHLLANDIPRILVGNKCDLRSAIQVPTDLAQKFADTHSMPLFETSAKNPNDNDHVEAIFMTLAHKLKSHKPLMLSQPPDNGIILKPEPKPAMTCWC
UniProt Q8WUD1: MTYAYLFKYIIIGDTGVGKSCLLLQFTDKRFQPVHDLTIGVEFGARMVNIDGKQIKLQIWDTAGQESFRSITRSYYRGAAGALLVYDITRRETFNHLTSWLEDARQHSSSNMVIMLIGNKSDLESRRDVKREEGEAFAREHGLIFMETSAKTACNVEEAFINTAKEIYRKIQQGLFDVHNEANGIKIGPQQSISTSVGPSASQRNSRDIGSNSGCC
UniProt Q6GYQ0: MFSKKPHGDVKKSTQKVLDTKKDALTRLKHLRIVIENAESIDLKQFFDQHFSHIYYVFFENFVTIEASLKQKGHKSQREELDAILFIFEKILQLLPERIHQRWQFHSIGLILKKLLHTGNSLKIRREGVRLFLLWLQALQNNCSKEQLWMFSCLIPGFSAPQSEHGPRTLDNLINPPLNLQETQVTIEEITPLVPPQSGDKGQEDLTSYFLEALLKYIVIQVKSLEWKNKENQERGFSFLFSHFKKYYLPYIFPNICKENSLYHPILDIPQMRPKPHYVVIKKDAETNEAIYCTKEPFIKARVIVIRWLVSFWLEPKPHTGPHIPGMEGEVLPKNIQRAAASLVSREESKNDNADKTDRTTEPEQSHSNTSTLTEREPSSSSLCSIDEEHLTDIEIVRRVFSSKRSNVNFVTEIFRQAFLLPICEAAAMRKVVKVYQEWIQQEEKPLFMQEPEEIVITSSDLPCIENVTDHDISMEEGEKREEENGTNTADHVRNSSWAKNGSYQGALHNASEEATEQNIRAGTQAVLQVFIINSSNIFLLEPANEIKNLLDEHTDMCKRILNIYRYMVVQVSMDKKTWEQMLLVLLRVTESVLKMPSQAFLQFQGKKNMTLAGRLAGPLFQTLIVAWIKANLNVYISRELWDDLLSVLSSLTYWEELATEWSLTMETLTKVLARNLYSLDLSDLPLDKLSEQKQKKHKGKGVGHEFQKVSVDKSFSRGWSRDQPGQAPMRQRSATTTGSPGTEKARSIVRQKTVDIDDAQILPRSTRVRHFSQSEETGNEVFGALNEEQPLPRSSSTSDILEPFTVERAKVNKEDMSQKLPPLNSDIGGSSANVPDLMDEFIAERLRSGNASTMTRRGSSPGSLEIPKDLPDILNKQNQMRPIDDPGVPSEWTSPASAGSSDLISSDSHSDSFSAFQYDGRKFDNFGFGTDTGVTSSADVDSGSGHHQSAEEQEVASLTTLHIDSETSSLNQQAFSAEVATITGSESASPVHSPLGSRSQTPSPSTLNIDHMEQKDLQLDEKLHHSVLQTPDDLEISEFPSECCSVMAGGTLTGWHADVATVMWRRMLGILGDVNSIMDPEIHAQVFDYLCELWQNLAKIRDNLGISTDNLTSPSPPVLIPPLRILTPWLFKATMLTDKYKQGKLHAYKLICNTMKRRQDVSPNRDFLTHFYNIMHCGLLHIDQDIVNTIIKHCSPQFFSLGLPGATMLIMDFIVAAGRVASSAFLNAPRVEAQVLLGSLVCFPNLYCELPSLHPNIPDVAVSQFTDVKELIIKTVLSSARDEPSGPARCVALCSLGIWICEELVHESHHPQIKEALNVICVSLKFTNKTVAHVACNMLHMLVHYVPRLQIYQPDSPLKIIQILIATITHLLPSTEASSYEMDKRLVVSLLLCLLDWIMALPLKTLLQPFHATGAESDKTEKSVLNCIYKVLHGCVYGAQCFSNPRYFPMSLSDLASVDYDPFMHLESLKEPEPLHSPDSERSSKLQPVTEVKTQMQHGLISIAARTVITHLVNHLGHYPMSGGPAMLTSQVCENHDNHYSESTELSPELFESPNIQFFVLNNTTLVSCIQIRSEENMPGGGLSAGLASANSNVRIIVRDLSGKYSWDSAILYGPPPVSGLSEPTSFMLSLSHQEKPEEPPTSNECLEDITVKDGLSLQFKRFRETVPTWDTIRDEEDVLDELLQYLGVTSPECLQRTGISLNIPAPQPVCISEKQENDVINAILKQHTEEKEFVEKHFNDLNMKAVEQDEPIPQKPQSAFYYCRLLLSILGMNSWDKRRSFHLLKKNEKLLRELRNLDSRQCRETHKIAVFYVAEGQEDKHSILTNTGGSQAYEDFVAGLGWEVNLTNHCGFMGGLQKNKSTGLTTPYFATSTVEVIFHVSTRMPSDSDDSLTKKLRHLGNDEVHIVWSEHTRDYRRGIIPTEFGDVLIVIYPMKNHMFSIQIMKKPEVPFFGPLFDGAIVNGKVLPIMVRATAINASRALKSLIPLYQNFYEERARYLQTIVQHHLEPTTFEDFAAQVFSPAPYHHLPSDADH
UniProt Q9H6Z4: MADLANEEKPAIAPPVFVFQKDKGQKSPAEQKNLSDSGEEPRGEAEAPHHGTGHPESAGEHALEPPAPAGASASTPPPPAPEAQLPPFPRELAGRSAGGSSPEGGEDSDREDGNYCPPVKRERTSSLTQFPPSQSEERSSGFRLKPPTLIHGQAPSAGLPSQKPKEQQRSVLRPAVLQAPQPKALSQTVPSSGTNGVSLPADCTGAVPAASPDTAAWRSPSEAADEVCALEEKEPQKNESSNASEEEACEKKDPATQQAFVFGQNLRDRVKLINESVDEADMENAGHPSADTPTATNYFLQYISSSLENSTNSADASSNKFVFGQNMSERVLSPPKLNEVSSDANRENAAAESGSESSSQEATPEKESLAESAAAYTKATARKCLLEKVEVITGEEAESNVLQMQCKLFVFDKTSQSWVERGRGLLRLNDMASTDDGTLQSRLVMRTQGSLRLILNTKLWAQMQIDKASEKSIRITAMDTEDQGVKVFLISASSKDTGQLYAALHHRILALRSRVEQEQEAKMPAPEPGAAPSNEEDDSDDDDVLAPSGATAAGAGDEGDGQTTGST
UniProt Q96B01: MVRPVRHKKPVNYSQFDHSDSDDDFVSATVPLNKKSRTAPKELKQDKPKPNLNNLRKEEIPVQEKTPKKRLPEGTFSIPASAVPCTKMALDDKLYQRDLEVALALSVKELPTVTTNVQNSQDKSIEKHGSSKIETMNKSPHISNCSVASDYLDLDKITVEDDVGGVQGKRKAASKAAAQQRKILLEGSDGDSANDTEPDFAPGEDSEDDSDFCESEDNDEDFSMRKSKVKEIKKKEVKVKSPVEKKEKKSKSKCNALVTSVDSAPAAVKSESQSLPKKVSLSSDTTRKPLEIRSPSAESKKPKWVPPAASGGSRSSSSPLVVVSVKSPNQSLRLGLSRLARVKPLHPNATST

How the values were obtained:
Assay in all cases: log2 fold change, soluble protein after heating vs DMSO (PISA); higher = thermal stabilisation; K562 lysate, 10 uM; active = over 0.2 and 3.5 SD of the protein, either way, in both replicates (recomputed)
ibrutinib = compound: C=CC(=O)N1CCC[C@@H](n2nc(-c3ccc(Oc4ccccc4)cc3)c3c(N)ncnc32)C1 [ibrutinib]
Outline: (§1)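 Following dounce homogenisation of K562 pellets in PBS pH 7.4 with 1 mM MgCl2, crude extract at 1 mg/mL protein was incubated for 30 min with 10 μM compound. Aliquots were then heated for 3 min over 48°C-58°C and pooled, NP-40 was added to 0.5% at 4°C, and soluble protein was recovered as the supernatant at 21,000xg for 90 min. Channel-sum-equalised TMTpro 16plex LC-MS/MS quantified this protein. Each value, from duplicates, is a log-two fold change in thermal stability relative to solvent controls.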

[1] = compound: CC(=O)c1cnc2ccc(-c3cc(Cl)c(O)c(Cl)c3)nc2c1N[C@H]1CC[C@H](CN(C)C)CC1
Outline: as §1

ralimetinib = compound: CC(C)(C)Cn1c(N)nc2ccc(-c3[nH]c(C(C)(C)C)nc3-c3ccc(F)cc3)nc21 [ralimetinib]
Outline: as §1

[2] = compound: CC(C)(O)CC(=O)NCCn1ccc2ncnc(Nc3ccc(Oc4cccc(C(F)(F)F)c4)c(Cl)c3)c21
Outline: as §1

[3] = compound: CC(C)C1=C2N=C(C=C(N2N=C1)NCC3=CC=CC=C3)NCCCCCCN
Outline: as §1

[4] = compound: CC1=C(C(CC(=O)N1)C2=CC=C(C=C2)C(F)(F)F)C(=O)NC3=C(C=C4C(=C3)C=NN4)F
Outline: as §1

[5] = compound: CC1=C(C2=C(C=C1)C(=O)C3=CC=CC=C3N2CCCN)C
Outline: as §1

[6] = compound: CC1=C(C=C(C=C1)NC(=O)C2=CC(=CC=C2)C(C)(C)C#N)NC3=CC4=C(C=C3)N=CN(C4=O)C
Outline: as §1

[7] = compound: CC1=C(C=C(C=C1)NC(=O)C2=CC(=CC=C2)N(C)C)NC(=O)C3=CC=C(C=C3)O
Outline: as §1

[8] = compound: CC1=CC=C(C=C1)SC2=C3C=C(SC3=CN=C2)C(=O)N
Outline: as §1

Target | log2 fold change (ibrutinib) | log2 fold change [1] | log2 fold change (ralimetinib) | log2 fold change [2] | log2 fold change [3] | log2 fold change [4] | log2 fold change [5] | log2 fold change [6] | log2 fold change [7] | log2 fold change [8]
RABAC1 (UniProt Q9UI14) | inactive: 0.027 | inactive: 0.007 | inactive: -0.017 | inactive: -0.029 | inactive: 0 | inactive: 0.028 | inactive: -0.01 | inactive: 0.118 | inactive: -0.084 | inactive: -0.024
RAN (UniProt P62826) | inactive: -0.024 | inactive: 0.023 | inactive: -0.013 | inactive: 0.001 | inactive: 0.016 | inactive: -0.042 | inactive: -0.002 | inactive: -0.023 | inactive: 0.002 | inactive: 0.037
RAB23 (UniProt Q9ULC3) | inactive: -0.022 | inactive: 0.016 | inactive: 0.004 | inactive: -0.054 | inactive: -0.019 | inactive: 0.018 | inactive: 0.065 | inactive: -0.04 | inactive: 0.091 | inactive: -0.006
RANBP1 (UniProt P43487) | inactive: -0.045 | inactive: 0.022 | inactive: -0.03 | inactive: -0.004 | inactive: 0.009 | inactive: -0.031 | inactive: 0.02 | inactive: 0.01 | inactive: -0.03 | inactive: 0
RAD1 (UniProt O60671) | inactive: 0.082 | inactive: 0 | inactive: 0.002 | inactive: 0.039 | inactive: 0.06 | inactive: 0.052 | inactive: -0.046 | inactive: 0.042 | inactive: -0.003 | inactive: -0.045
QSOX2 (UniProt Q6ZRP7) | inactive: 0.04 | inactive: 0.001 | inactive: 0.016 | inactive: -0.046 | inactive: -0.028 | inactive: 0.043 | inactive: 0.005 | inactive: 0.04 | inactive: -0.008 | inactive: 0.009
RAD51C (UniProt O43502) | inactive: -0.015 | inactive: 0.055 | inactive: 0.044 | inactive: 0.009 | inactive: 0.067 | inactive: -0.015 | inactive: -0.039 | inactive: 0 | inactive: -0.037 | inactive: -0.051
RAB22A (UniProt Q9UL26) | inactive: 0.02 | inactive: -0.081 | inactive: 0.022 | inactive: -0.023 | inactive: -0.021 | inactive: 0.055 | inactive: -0.055 | inactive: -0.007 | inactive: -0.026 | inactive: 0.13
RAP2A (UniProt P10114) | inactive: 0.025 | inactive: -0.004 | inactive: 0.019 | inactive: -0.018 | inactive: 0.005 | inactive: -0.031 | inactive: -0.039 | inactive: 0.041 | inactive: -0.028 | inactive: 0.008
RABEP2 (UniProt Q9H5N1) | inactive: -0.013 | inactive: 0.022 | inactive: 0.008 | inactive: 0.023 | inactive: 0.003 | inactive: -0.027 | inactive: -0.003 | inactive: 0.046 | inactive: 0.007 | inactive: -0.014
PYM1 (UniProt Q9BRP8) | inactive: 0.036 | inactive: -0.003 | inactive: -0.003 | inactive: -0.028 | inactive: 0.017 | inactive: -0.008 | inactive: 0.003 | inactive: 0.045 | inactive: -0.028 | inactive: 0.007
RAF1 isoform 2 (UniProt P04049) | inactive: -0.046 | inactive: 0.047 | inactive: 0.054 | inactive: 0.004 | inactive: 0.065 | inactive: 0.092 | inactive: -0.055 | active: 0.359 | inactive: 0 | inactive: 0.027
R3HCC1 (UniProt Q9Y3T6) | inactive: 0.02 | inactive: 0.058 | inactive: 0.016 | inactive: -0.028 | inactive: -0.045 | inactive: 0.022 | inactive: -0.061 | inactive: 0.017 | inactive: -0.001 | inactive: 0.025
RAD51D (UniProt O75771) | inactive: 0 | inactive: -0.09 | inactive: 0.273 | inactive: 0.107 | inactive: 0.006 | inactive: -0.022 | inactive: -0.001 | – | inactive: -0.171 | inactive: -0.046
RAB40C (UniProt Q96S21) | inactive: 0.021 | inactive: 0.002 | inactive: 0.098 | inactive: -0.007 | inactive: -0.099 | inactive: -0.005 | – | inactive: 0.042 | inactive: -0.016 | inactive: 0.04
RAB5C isoform 2 (UniProt P51148) | inactive: -0.007 | inactive: 0.014 | inactive: 0.018 | inactive: -0.04 | inactive: 0.004 | inactive: 0.01 | inactive: -0.004 | inactive: -0.002 | inactive: -0.009 | inactive: 0.026
PXK (UniProt Q7Z7A4) | inactive: -0.024 | inactive: 0 | inactive: 0.042 | inactive: -0.002 | inactive: -0.053 | inactive: -0.019 | inactive: -0.044 | inactive: 0.008 | inactive: -0.008 | inactive: 0.009
RAB2A (UniProt P61019) | inactive: 0.022 | inactive: 0.019 | inactive: 0.024 | inactive: 0.033 | inactive: -0.02 | inactive: 0.013 | inactive: 0.051 | inactive: -0.036 | inactive: -0.015 | inactive: -0.045
RAB3GAP1 (UniProt Q15042) | inactive: 0.001 | inactive: -0.011 | inactive: 0.024 | inactive: -0.003 | inactive: 0.013 | inactive: -0.011 | inactive: 0 | inactive: 0.01 | inactive: 0.005 | inactive: -0.006
RAB33B (UniProt Q9H082) | inactive: 0.052 | inactive: 0.055 | inactive: 0.076 | inactive: -0.02 | inactive: 0.025 | inactive: 0.098 | inactive: -0.101 | – | inactive: 0.044 | inactive: 0.141
RAB6B (UniProt Q9NRW1) | inactive: 0.106 | inactive: 0.026 | inactive: 0.013 | inactive: 0.005 | inactive: -0.009 | inactive: 0.031 | inactive: 0.008 | inactive: -0.01 | inactive: -0.016 | inactive: 0.031
R3HDM1 isoform 3 (UniProt Q15032) | inactive: -0.002 | inactive: -0.134 | inactive: 0 | inactive: -0.067 | inactive: -0.025 | – | inactive: -0.002 | inactive: -0.05 | inactive: -0.014 | inactive: 0.013
RAB2B (UniProt Q8WUD1) | inactive: 0.01 | inactive: 0.011 | inactive: 0.006 | inactive: -0.026 | inactive: 0.01 | inactive: -0.018 | inactive: -0.005 | inactive: 0.008 | inactive: -0.012 | inactive: -0.008
RAB5A (UniProt P20339) | inactive: -0.021 | inactive: 0.005 | inactive: -0.033 | inactive: -0.009 | inactive: -0.003 | inactive: 0.016 | inactive: -0.036 | inactive: 0.024 | inactive: -0.031 | inactive: -0.001
RALGAPA1 isoform 6 (UniProt Q6GYQ0) | inactive: 0.047 | inactive: -0.06 | inactive: 0.01 | inactive: 0.002 | inactive: -0.01 | inactive: -0.039 | inactive: 0.02 | inactive: -0.007 | inactive: 0.038 | inactive: -0.081
RAB11B (UniProt Q15907) | inactive: 0.085 | inactive: 0.006 | inactive: -0.031 | inactive: -0.036 | inactive: 0.007 | inactive: 0.002 | inactive: 0.006 | inactive: -0.003 | inactive: 0.028 | inactive: -0.023
RAP2C (UniProt Q9Y3L5) | inactive: 0.084 | inactive: 0.006 | inactive: 0.06 | inactive: -0.042 | inactive: 0.012 | inactive: 0.014 | inactive: -0.03 | inactive: 0.009 | inactive: -0.087 | inactive: 0.06
RAB9A (UniProt P51151) | inactive: 0.026 | inactive: 0.009 | inactive: -0.021 | inactive: 0.006 | inactive: -0.031 | inactive: 0.096 | inactive: 0.029 | inactive: -0.053 | inactive: -0.015 | inactive: 0.017
RANBP3 isoform 2 (UniProt Q9H6Z4) | inactive: 0.07 | inactive: 0.027 | inactive: 0.067 | inactive: -0.016 | – | inactive: 0.008 | inactive: 0.013 | inactive: 0.01 | inactive: 0.075 | inactive: -0.001
RAD51AP1 (UniProt Q96B01) | inactive: 0.067 | inactive: 0.042 | inactive: -0.043 | inactive: -0.059 | inactive: -0.065 | inactive: -0.009 | inactive: -0.109 | inactive: 0.029 | inactive: 0.067 | inactive: 0.017

Single records, from the list above. Values in the order: log2 fold change (ibrutinib) | log2 fold change [1] | log2 fold change (ralimetinib) | log2 fold change [2] | log2 fold change [3] | log2 fold change [4] | log2 fold change [5] | log2 fold change [6] | log2 fold change [7] | log2 fold change [8]
RAB22A (UniProt Q9UL26) is listed as inactive: 0.02 | inactive: -0.081 | inactive: 0.022 | inactive: -0.023 | inactive: -0.021 | inactive: 0.055 | inactive: -0.055 | inactive: -0.007 | inactive: -0.026 | inactive: 0.13
RAN (UniProt P62826) is listed as inactive: -0.024 | inactive: 0.023 | inactive: -0.013 | inactive: 0.001 | inactive: 0.016 | inactive: -0.042 | inactive: -0.002 | inactive: -0.023 | inactive: 0.002 | inactive: 0.037
